# From PubChem BioAssay AID720513 (Broad Institute, 2013)
# In all, about 2,100 compounds went through this assay and about 480 (23%) were called active. The inconclusive results got no clear call from the source; some entries with a clear call stand among them for comparison.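 The calls were made as follows: active = fitted curve reaches 40% activation at or below the top valid concentration, in every replicate test; inconclusive = replicate tests disagree on the call; inactive = the rest, including activity in the opposite direction.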
# Test: activators raising PGC1a acetylation in cells, dose response, cell-based, cherry-picked samples, set 6 (AID 720513);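 also: cells made to overexpress flag tagged PGC1a plus GCN5 acetyltransferase by viral infection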
# Details: U2OS PGC1a acetylation AlphaLISA, overnight, 0 = neutral, -100 = inhibitor control; at 19.5 µM (top of the series) unless noted
row,SMILES,activation (acetylation increase)
1,Cc1cccc(C)c1NC(=O)C(NC(=O)c1ccccn1)c1ccc([N+](=O)[O-])cc1 (centres undefined),inactive: 27.5%
2,Cc1noc(C)c1COc1ccccc1C(=O)N(C)CC(=O)Nc1ccc(Cl)c(Cl)c1,inconclusive: -7.71%
3,Cc1ccc(-c2nn(C)c(=O)c3ccccc23)cc1S(=O)(=O)NCCN(C)C,inconclusive: 32%
4,Cc1ccccc1S(=O)(=O)N[C@@H]1CC[C@@H](CCn2cc(Cc3ccccc3)nn2)O[C@H]1CO,inconclusive: 26.9%
5,COCCOC(=O)N1C(=O)[C@@]2(c3ccccc31)[C@H](c1ccccc1OCCO)N1[C@H](c3ccccc3)[C@H](c3ccccc3)OC(=O)[C@H]1[C@@H]2C(=O)N1CCCCCCC1,inconclusive: 29.6%
6,COc1ccccc1C(=O)Nc1nnc(CCc2ccccc2)s1,inconclusive: -8.69%
7,CCCCN(C)Cc1c(C)[nH]c2ccccc2c1=O,inactive: 10.8%
8,C[C@H]1CN([C@@H](C)CO)C(=O)c2cc(/C=C/c3ccccc3)cnc2O[C@H]1CN(C)C(=O)CN(C)C,inconclusive: 48.2%
9,CCOC(=O)c1[nH]c2ccc(OC)cc2c1NC(=O)c1ccc2c(c1)OCO2,inactive: -3.22%
10,COc1ccc(S(=O)(=O)N(C)C[C@H]2Oc3cc(C4=CCCC4)ccc3S(=O)(=O)N([C@H](C)CO)C[C@@H]2C)cc1,inconclusive: 13.2%
11,O=C(O)CSc1nnc(COc2cccc3ccccc23)o1,inconclusive: -12.2%
12,COc1ccc(S(=O)(=O)Nc2ccc3c(c2)C(=O)N([C@H](C)CO)C[C@H](C)[C@H](CN(C)S(=O)(=O)c2cn(C)cn2)OCCCC[C@@H](C)O3)cc1,inconclusive: 39.9% [at 21 µM]
13,Cc1ccc(Cn2ncc(Cl)c(Cl)c2=O)cc1,inactive: -95.1%
14,Cc1cc(NS(=O)(=O)c2ccc(NC(=O)CCCOc3ccccc3)cc2)no1,inactive: 17.9%
15,C[C@@H]1CN([C@H](C)CO)C(=O)c2cccc(NC(=O)C3CCCCC3)c2O[C@@H]1CN(C)CC1CCCCC1,inactive: 15.4%
16,COc1ccc(N(CC(=O)Nc2ccccc2Cl)S(=O)(=O)c2ccc(C)cc2)cc1OC,inactive: 7.4%
17,O=C(COn1nnc2ccc(Cl)cc21)NC12CC3CC(CC(C3)C1)C2,inactive: 9.47%
18,CC(C)NC(=O)Nc1ccc2c(c1)C(=O)N([C@H](C)CO)C[C@@H](C)[C@H](CN(C)S(=O)(=O)c1ccccc1)OCCCC[C@@H](C)O2,inactive: 14.8% [at 21 µM]
19,NCC[C@H]1CC[C@@H](NC(=O)C2CCCCC2)[C@@H](CO)O1,inconclusive: 27.4%

# 2 compounds picked at random from those above:
row,SMILES,activation (acetylation increase)
7,CCCCN(C)Cc1c(C)[nH]c2ccccc2c1=O,inactive: 10.8%
2,Cc1noc(C)c1COc1ccccc1C(=O)N(C)CC(=O)Nc1ccc(Cl)c(Cl)c1,inconclusive: -7.71%
